Test results from PMC5591945, “Novel Protein-Protein Inhibitor Based Approach to Control Plant Ethylene Responses: Synthetic Peptides for Ripening Control” (Frontiers in Plant Science, 2017).
Results are given in words; binding and its absence hold for the method and conditions named.

Target: T1, tomato ethylene receptor NR (NeverRipe) (tomato (Solanum lycopersicum)) (UniProt Q41341)
T1 sequence (chain, labeled with Alexa Fluor 488-Maleimide): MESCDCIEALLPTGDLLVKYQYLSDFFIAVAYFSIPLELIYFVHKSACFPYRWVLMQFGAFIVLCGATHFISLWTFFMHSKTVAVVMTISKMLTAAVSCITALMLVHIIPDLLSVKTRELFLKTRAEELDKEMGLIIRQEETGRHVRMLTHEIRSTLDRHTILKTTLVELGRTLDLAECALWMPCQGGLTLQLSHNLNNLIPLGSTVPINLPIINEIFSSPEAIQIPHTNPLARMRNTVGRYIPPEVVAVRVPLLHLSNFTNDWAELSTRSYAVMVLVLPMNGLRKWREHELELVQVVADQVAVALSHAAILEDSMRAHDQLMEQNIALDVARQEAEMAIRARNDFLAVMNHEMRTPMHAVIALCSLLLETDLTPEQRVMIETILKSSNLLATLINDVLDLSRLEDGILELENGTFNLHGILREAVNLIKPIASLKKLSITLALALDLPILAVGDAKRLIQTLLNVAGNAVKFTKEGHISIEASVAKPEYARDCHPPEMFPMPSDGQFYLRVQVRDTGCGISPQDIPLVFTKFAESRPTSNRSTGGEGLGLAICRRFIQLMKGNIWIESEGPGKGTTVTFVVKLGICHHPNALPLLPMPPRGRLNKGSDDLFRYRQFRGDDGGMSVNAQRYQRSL
Test: condition: only receptor chemically denatured with 4% (w/v) SDS and 40 mM DTT; MST; as a1, but receptors chemically denatured with 4% (w/v) SDS and 40 mM DTT for 5 min in the dark at RT (negative control); both purified

binding: no binding
B1: NOP-1 octapeptide (peptide)
peptide: LKRYKRRL
notes: Used unlabeled in MST; also called NLS-derived peptide; source: synthetic peptide (GenScript)
